The values that follow come from PMC10890935.

Chains of the proteins cited; added tags and fusions are not shown. Lines headed by an entry give the natural chain unless they say otherwise; changes in a name come on top.
UniProt A8LHT0: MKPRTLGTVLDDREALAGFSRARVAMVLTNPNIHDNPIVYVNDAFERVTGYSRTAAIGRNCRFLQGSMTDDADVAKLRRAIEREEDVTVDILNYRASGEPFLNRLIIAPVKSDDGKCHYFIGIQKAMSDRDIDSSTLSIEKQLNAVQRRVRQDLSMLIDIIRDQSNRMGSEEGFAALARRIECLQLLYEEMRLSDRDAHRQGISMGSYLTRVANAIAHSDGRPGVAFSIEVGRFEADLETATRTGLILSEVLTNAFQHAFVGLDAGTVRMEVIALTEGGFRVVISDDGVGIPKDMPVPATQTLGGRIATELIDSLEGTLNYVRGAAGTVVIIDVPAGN

These are yes or no findings as the source states them, for the method shown. In cells and extracts the contact can be indirect. A yes stands for co-enrichment or nearness to the bait. Other partners may have been found. No binding means not detected with the bait. Tags and fused reporters may be left off the sequences shown.

To fix the notation:
B1: PpsR repressor (protein, UniProt A8LQ24 1-476)
chain: MNTRERDFWDDRSAPRIAPEHFNEIVATAADLAIVLDLKGTVQSLVVNPLNPTIGRLDHWQKRDIREFLAEDSLAKLEKQLSAYQQGEVPPTDAIEVNHFDNANWEFPIRYTLHRTGDENLILMLGRDLRPVAELQHRLVKAQLALEKDYESHRDYETRYRVVMESTRDPLVLVDASSGRITDMNSAAAQVLGAEADALVGSLFGHEFNGLKRGELLDQLMGAATSDTNSSVTAHTKRTAKELKIQARLFRASGDKTLLCRLEGAGAQEVIAEELSEVLTLLFREGADAVVFTDPTGMIRNVNEAFLNLTDVGQLGDIKGKSLSDFLARGSVDLKVMMDNASRHGSMPVYSTRLESAYGSQLSVEISATHLEARQNGGFAFVFRDASRLEVVRDAAPVNGAVSGEAMQNVMELVGSAPLKDIVSATTDVVEKMCIETAVGLTRNNRVAAAEMLGLSRQSLYVKLRKYGLLNKGGDE
B2: N-acetylglucosamine-1-phosphate uridyltransferase (GlmU) (enzyme, UniProt A8LIS2 1-450)
chain: MGVALIVLAAGQGSRMNSELPKVLHPLAGAPLLAHGLRAGAALDPARIVVVTGHGAAAVEAATAQLAPEAICVRQTEQLGTGHAVAQTAQALAGFGGDALVLYGDTPFISPETLLAMQAARAAGADMVVLGFEAADPGRYGRLVTDGDALLRIVEAKDATPDELALDLCNSGVMMADAQVLLRLVAGLSNDNASREYYLTDTIAAGRAEGLRARVVVCPEAETLGINTRTELAAAEQAFQARARARALEDGVTLADPATTHFAVDTVIGRDATIGPQVVFGPGVTVESGAEIRAFSHLEGCHVSRGARVGPFARLRPGAELAENTHVGNFVEIKNATLAQGAKVNHLSYIGDAAIGEASNVGAGTITCNYDGVFKHRTEIGARSFIGSNTCLVAPVRVGDEAMTATGTVVTQDIPDGAMAVGRTRQENKPGFARKFMTMLRARKSAKGAQ
B3: Dshi_2485, pyruvate carboxylase (enzyme, UniProt A8LSM0 1-1145)
chain: MTDFQKILIANRGEIAIRVMRAANELGKKTVAVYAEEDKLCLHRFKADEAYKIGEGLGPVAAYLSIDEIIRVAKLSGADAIHPGYGLLSENPDFVDACVANGIAFIGPRAETMRALGDKASARRVAIEAGVPVIPATEVLGDDMDKVRAEAEAIGFPLMLKASWGGGGRGMRPIFDPDEVADKVREGRREAEAAFGNGEGYLEKMITRARHVEVQILGDSMGNIYHLWERDCSVQRRNQKVVERAPAPYLSSSQREQLCELGRKICAHVNYECAGTVEFLMDMDTGEFFFIEVNPRVQVEHTVTEEVTGIDIVRAQILIAEGKSLVEATGMASQYDVQLNGHAIQCRITTEDPQNNFIPDYGRITAYRGATGMGIRLDGGTAYSGAVITRYYDSLLEKVTAWAPTPEAAIARMDRALREFRIRGVSTNIAFVENLLKHPTFLNNQYTTKFIDETEELFQFPKRRDRATRILRYIADISVNGHPETEGRPKPPATPRALRAPAPKAAPAPGTRTLLEKKGPQAVADWMAAQKQLLITDTTMRDGHQSLLATRMRSIDMIRVAPSYAANLPQLFSVECWGGATFDVAYRFLQECPWQRLRDIRAAMPNVMTQMLLRGSNGVGYTNYPDNVVRAFTLQAAESGVDVFRVFDSLNWVENMRVAMDAVLESGKVCEGAICYTGDILDPNRAKYDLNYYVTMGKELREAGAHILGLKDMAGLLKPASARILIKALKEEVGLPIHFHTHDTAGIASATILAAAESGVDAVDCAMDALSGNTSQATLGTVVEALQHTDRDTGLDIKAVREISDYWEAVRGEYAAFESGMQAPSSEVYLHEMPGGQFTNLKAQARSLGLEERWHEVAQTYADVNQMFGDIVKVTPSSKVVGDMALMMVSQGLSRADVEDPDRDVSFPDSVIDMMRGNLGQPAGGFPEAIVAKILKGESPNTERPGKHIPPVDLEKTRADLAAQLEVDIDDEDLNGYLMYPKVFTDYMTRHAEYGPVRTLPTRTFFYGMQPGDEIEVEIDPGKTLVVRMQTASETNEDGEVKVFFELNGQPRQVRVPNRKAAASVAKRPKAELGNPNHVGAPMPGVVASVAVQAGASVKEGDLLLTIEAMKMETGIHAERDAVVKAVHVTPAAQIDAKDLLVELE
B4: Enolase (Eno) (enzyme, UniProt A8LQL4 1-424)
chain: MSLIVDVYAREILDSRGNPTVEVDVTLEDGTLGRAAVPSGASTGAYEAVELRDKDTARYFGKGVKTAVAFVNGEIAEALMGIDATDQVGIDSAMIELDGTPNKSRLGANAILGVSLAVAKAAAEATGQPLYRYVGGTSARVLPVPMMNIINGGEHADNPIDIQEFMIMPVSADSIAEAVRMGAEVFHTLKKELSAAGLSTGIGDEGGFAPNLSSTRDALDFVLKAIEKAGYTPGEDIYLALDCAATEYFEDGRYEMKGEGKTLTPEANVDYLEALVNDYPILSIEDGCSEDDWEGWALLTERLGDRVQLVGDDLFVTNPARLAEGIQKGCANSLLVKVNQIGTLTETLSAVDLAHRNRMTCVMSHRSGETEDATIADLAVATNCGQIKTGSLARSDRLAKYNQLIRIEDELGETAIYAGRSILR
B5: RpoZ, RNA polymerase subunit omega (protein, UniProt A8LLD2 1-118)
chain: MARVTVEDCVDKVPNRFELVMLAAHRAREISAGSELTIDRDNDKNPVVSLREIAEETQSADALRERLIESNQTQIEVDEPEEDSMAMLMGGGQPDKPAEDDMSEEKLLRALMEAQGQP
B6: Dshi_1084, conserved hypothetical protein (protein, UniProt A8LSL2 1-136)
chain: MSTVATWPSQAEMWLDRKGKPAWIVAMVLGFIFFWPIGLALLAYMIWGKKMFKSQSACKSYSLTHGFKSSGNTAFDAYKADTLRRLQDEQEAFEAFLDRLRAAKDKSEFDQFMEDRARMAQDTPKPDTDGPAPAGA
B7: Elongation factor Ts (Tsf) (protein, UniProt A8LK92 1-291)
chain: MAITAALVKELRDKTGAGMMDAKKALTETDGDMEAAVDWLRTKGLAKAAKKSGRTAAEGLVGVAVADGAAVAVEVNSETDFVAKNAEFQAMVASFAEAALSASDLDALKGTEVGGKTVETILTDKIATIGENMTLRRMEKLSGETVVSYVHNAAADGMGKIGVLVALTGADNGIGKQIAMHIAAANPASLSEADLDPAVVEKERQVQIDIARESGKPEQVIEKMIVGRMKKFLSEVTLLGQAFVVNPDLTVGDAAKEAGVEITGFVRMEVGEGIEKVEEDFAAEVAKTMNG
B8: AccB, component of the acetyl coenzyme A carboxylase complex (protein, UniProt A8LJB6 1-175)
chain: MRLSDHPIEDGMTNKSHDDDVAFIKALAELLRANDLSELQVKREYGEDDSLNVRVSRQMTAAPVAAAMPVAAPAPMAAPVAPGAAAPAPLEGGDPAQDPNALTSPMVGTAYLQPEPGAASFVSTGDTVKEGQTVLIIEAMKTMNQIAAPRAGKVTRIFVEDGSPVEYGAPLMIIE
B9: RpoA, RNA polymerase subunit alpha (protein, UniProt A8LM81 1-343)
chain: MEATPMIHKNWQELIKPTQLEVKPGNEPARQATVVAEPLERGFGLTLGNALRRVLMSSLQGAAITSVQIDNVLHEFSSVAGVREDVTDIVLNLKQVAIRMEVEGPKRVSISAKGPRVVTAGDISESAGIEVLNRDHVICHLDEGADLFMELIVNTGKGYVSADKNRPEDAPIGLIPIDAIFSPVKKVSYDVQPTREGQVLDYDKLTLKLETDGSVTPDDAVAYAARILQDQLSVFVNFDEPEAARSQSEEDDLEFNPLLLKKVDELELSVRSANCLKNDNIVYIGDLIQKTEAEMLRTPNFGRKSLNEIKEVLSGMGLHLGMDILDWPPENIEDLAKKFEDQF

In the test the target is Dshi_1135-Strep fusion protein (Dinoroseobacter shibae) (UniProt A8LHT0). Nature of the test: affinity purification with mass spectrometry; D. shibae DS266 grown in the dark, under blue light (467 nm) or white light; in vivo cross-linking with 0.125% formaldehyde; Dshi_1135-Strep bait on a Strep-Tactin column; elution fractions by nanoLC-MS/MS, compared with the proteome of the cell extract.
Take B1: the binding result was “binds”.
For the molecule B2, the binding entry was “binds”.
In the case of B3, the binding entry is listed as “no binding”.
As for B4, the entry is “binds”.
As for B5, the binding entry is on record as “binds”.
As for B6, the binding entry is “binds”.
For the molecule B7, the binding entry is “binds”.
With B8 the entry was “no binding”.
With B9 the entry was “binds”.
